From PMC11534337 come the findings set out here.

The target in the assay is T1, SIRT4 (human (endogenous in human TECs and HK2)) (UniProt Q9Y6E7).
T1 sequence: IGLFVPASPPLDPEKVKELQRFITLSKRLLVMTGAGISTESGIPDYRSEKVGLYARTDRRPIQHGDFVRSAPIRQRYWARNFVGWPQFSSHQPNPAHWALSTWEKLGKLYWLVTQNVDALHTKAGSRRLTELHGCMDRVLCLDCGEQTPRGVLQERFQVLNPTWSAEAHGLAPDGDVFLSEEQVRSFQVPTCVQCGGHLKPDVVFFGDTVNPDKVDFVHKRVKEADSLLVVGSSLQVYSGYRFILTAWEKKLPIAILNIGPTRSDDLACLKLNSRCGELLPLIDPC
The experiment in a line: affinity purification with mass spectrometry; RIME: human TECs treated with TGF-β1 or DMSO, cross-linked in 1% formaldehyde, sonicated, immunoprecipitated with a SIRT4 antibody; proteins in three of three replicates and in no IgG control.

No constants are given. Whether binding was seen depends on the method and setting. Binding seen in cells or lysates may run through a third protein. These calls come from enrichment with a bait or labelling near it, and not all partners need be listed.

B1: TSR1 (protein, UniProt Q2NL82 1-804)
chain: MAAHRPGPLKQQNKAHKGGRHRGRGSAQRDGKGRLALKTLSKKVRKELSRVDQRHRASQLRKQKKEAVLAEKRQLGGKDGPPHQVLVVPLHSRISLPEAMQLLQDRDTGTVHLNELGNTQNFMLLCPRLKHRWFFTSARPGDLHVVLDMAKVADTILFLLDPLEGWDSTGDYCLSCLFAQGLPTYTLAVQGISGLPLKKQIDTRKKLSKAVEKRFPHDKLLLLDTQQEAGMLLRQLANQKQQHLAFRDRRAYLFAHAVDFVPSEENNLVGTLKISGYVRGQTLNVNRLLHIVGYGDFQMKQIDAPGDPFPLNPRGIKPQKDPDMAMEICATDAVDDMEEGLKVLMKADPGRQESLQAEVIPDPMEGEQTWPTEEELSEAKDFLKESSKVVKKVPKGTSSYQAEWILDGGSQSGGEGDEYEYDDMEHEDFMEEESQDESSEEEEEYETMTIGESVHDDLYDKKVDEEAEAKMLEKYKQERLEEMFPDEVDTPRDVAARIRFQKYRGLKSFRTSPWDPKENLPQDYARIFQFQNFTNTRKSIFKEVEEKEVEGAEVGWYVTLHVSEVPVSVVECFRQGTPLIAFSLLPHEQKMSVLNMVVRRDPGNTEPVKAKEELIFHCGFRRFRASPLFSQHTAADKHKLQRFLTADMALVATVYAPITFPPASVLLFKQKSNGMHSLIATGHLMSVDPDRMVIKRVVLSGHPFKIFTKMAVVRYMFFNREDVLWFKPVELRTKWGRRGHIKEPLGTHGHMKCSFDGKLKSQDTVLMNLYKRVFPKWTYDPYVPEPVPWLKSEISSTVPQGGME
With B1, the binding entry is listed as “binds”.

B2: SART1 (protein, UniProt O43290 1-800)
chain: MGSSKKHRGEKEAAGTTAAAGTGGATEQPPRHREHKKHKHRSGGSGGSGGERRKRSRERGGERGSGRRGAEAEARSSTHGRERSQAEPSERRVKREKRDDGYEAAASSKTSSGDASSLSIEETNKLRAKLGLKPLEVNAIKKEAGTKEEPVTADVINPMALRQREELREKLAAAKEKRLLNQKLGKIKTLGEDDPWLDDTAAWIERSRQLQKEKDLAEKRAKLLEEMDQEFGVSTLVEEEFGQRRQDLYSARDLQGLTVEHAIDSFREGETMILTLKDKGVLQEEEDVLVNVNLVDKERAEKNVELRKKKPDYLPYAEDESVDDLAQQKPRSILSKYDEELEGERPHSFRLEQGGTADGLRERELEEIRAKLRLQAQSLSTVGPRLASEYLTPEEMVTFKKTKRRVKKIRKKEKEVVVRADDLLPLGDQTQDGDFGSRLRGRGRRRVSEVEEEKEPVPQPLPSDDTRVENMDISDEEEGGAPPPGSPQVLEEDEAELELQKQLEKGRRLRQLQQLQQLRDSGEKVVEIVKKLESRQRGWEEDEDPERKGAIVFNATSEFCRTLGEIPTYGLAGNREEQEELMDFERDEERSANGGSESDGEENIGWSTVNLDEEKQQQDFSASSTTILDEEPIVNRGLAAALLLCQNKGLLETTVQKVARVKAPNKSLPSAVYCIEDKMAIDDKYSRREEYRGFTQDFKEKDGYKPDVKIEYVDETGRKLTPKEAFRQLSHRFHGKGSGKMKTERRMKKLDEEALLKKMSSSDTPLGTVALLQEKQKAQKTPYIVLSGSGKSMNANTITK
On to B2, for which the binding result is reported as “binds”.
